Source: PubChem BioAssay AID504749 (NCATS, 2011).

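A panel of P. falciparum strains inside erythrocytes is exposed to compounds for three days, then a DNA-binding dye reports the amount of parasite DNA. Each compound was titrated across a series from about 0.000037 to 29 µM. The number is the fitted AC50, the concentration giving a half-maximal change in signal; a lower value means higher potency, whether the curve shows a decrease or an increase. Calls follow the curve class and fit quality: every row here is inconclusive, covering signal-raising curves and weak, poorly fitted, partial or highest-dose-only inhibition curves.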

Values are in nM. All entries here are filed as inconclusive. These entries are mostly ones the record files as inconclusive; other results of the assay are not listed here. Potencies fitted to partial, single-point or poorly fitting curves are rough. Some entries filed as inconclusive have a full curve.

| compound | setting | fitted potency (nM) | remark |
|---|---|---|---|
| `CNC[C@H](O)c1ccc(OC(=O)C(C)(C)C)c(OC(=O)C(C)(C)C)c1` | 7G8 | 10000 | inhibitor, single point |
| `CNC[C@H](O)c1ccc(OC(=O)C(C)(C)C)c(OC(=O)C(C)(C)C)c1` | CP315 | 2031 | inhibitor, partial curve, poor fit |
| `CNC[C@H](O)c1ccc(OC(=O)C(C)(C)C)c(OC(=O)C(C)(C)C)c1` | DIV17 | 128.2 | inhibitor, full curve, poor fit |
| `CNC[C@H](O)c1ccc(OC(=O)C(C)(C)C)c(OC(=O)C(C)(C)C)c1` | PC15 | 10000 | inhibitor, single point |
| `CNC[C@H](O)c1ccc(OC(=O)C(C)(C)C)c(OC(=O)C(C)(C)C)c1` | PC26 | 8087 | inhibitor, single point |
| `CNC[C@H](O)c1ccc(OC(=O)C(C)(C)C)c(OC(=O)C(C)(C)C)c1` | GB4 | 7208 | inhibitor, single point |
| `CNC[C@H](O)c1ccc(OC(=O)C(C)(C)C)c(OC(=O)C(C)(C)C)c1` | ICS | 10000 | inhibitor, single point |
| `CC1=CC(=O)c2ccccc2C1=O` | DIV17 | 674.6 | inhibitor, partial curve, poor fit |
| `CC1=CC(=O)c2ccccc2C1=O` | ICS | 11220 | inhibitor, single point |
| `CC1=CC(=O)c2ccccc2C1=O` | GB4 | 9528 | inhibitor, partial curve |
| `CC1=CC(=O)c2ccccc2C1=O` | C2A | 10000 | inhibitor, single point |
| `CC1=CC(=O)c2ccccc2C1=O` | CP237 | 6310 | inhibitor, partial curve |
| `CC1=CC(=O)c2ccccc2C1=O` | CP286 | 17782 | inhibitor, single point |
| `CC1=CC(=O)c2ccccc2C1=O` | CP260 | 11220 | inhibitor, single point |
| `CC1=CC(=O)c2ccccc2C1=O` | CP247 | 12589 | inhibitor, single point |
| `CC1=CC(=O)c2ccccc2C1=O` | DIV14 | 19011 | inhibitor, single point |
| `CC1=CC(=O)c2ccccc2C1=O` | PC15 | 11220 | inhibitor, single point |
| `CC1=CC(=O)c2ccccc2C1=O` | CP250 | 8912 | inhibitor, single point |
| `COc1cc(NS(=O)(=O)c2ccc(N)cc2)nc(OC)n1` | ICS | 10000 | inhibitor, single point |
| `COc1cc(NS(=O)(=O)c2ccc(N)cc2)nc(OC)n1` | CP266 | 287 | inhibitor, full curve, poor fit |
| `COc1cc(NS(=O)(=O)c2ccc(N)cc2)nc(OC)n1` | PC26 | 2031 | inhibitor, single point |
| `N=C(N)c1ccc2cc(OC(=O)c3ccc(N=C(N)N)cc3)ccc2c1` | DIV30 | 15101 | inhibitor, single point |
| `N=C(N)c1ccc2cc(OC(=O)c3ccc(N=C(N)N)cc3)ccc2c1` | CP260 | 11220 | inhibitor, partial curve |
| `N=C(N)c1ccc2cc(OC(=O)c3ccc(N=C(N)N)cc3)ccc2c1` | CP203 | 6012 | inhibitor, partial curve |
| `N=C(N)c1ccc2cc(OC(=O)c3ccc(N=C(N)N)cc3)ccc2c1` | CP325 | 8492 | inhibitor, partial curve |
| `N=C(N)c1ccc2cc(OC(=O)c3ccc(N=C(N)N)cc3)ccc2c1` | ATS189 | 4467 | inhibitor, partial curve |
| `N=C(N)c1ccc2cc(OC(=O)c3ccc(N=C(N)N)cc3)ccc2c1` | ATS95 | 6310 | inhibitor, partial curve |
| `N=C(N)c1ccc2cc(OC(=O)c3ccc(N=C(N)N)cc3)ccc2c1` | CP211 | 15101 | inhibitor, single point |
| `N=C(N)c1ccc2cc(OC(=O)c3ccc(N=C(N)N)cc3)ccc2c1` | DFO2036 | 7943 | inhibitor, partial curve |
| `N=C(N)c1ccc2cc(OC(=O)c3ccc(N=C(N)N)cc3)ccc2c1` | CP335 | 4256 | inhibitor, full curve |
| `N=C(N)c1ccc2cc(OC(=O)c3ccc(N=C(N)N)cc3)ccc2c1` | CP268 | 19011 | inhibitor, single point |
| `N=C(N)c1ccc2cc(OC(=O)c3ccc(N=C(N)N)cc3)ccc2c1` | CP194 | 9528 | inhibitor, partial curve |
| `N=C(N)c1ccc2cc(OC(=O)c3ccc(N=C(N)N)cc3)ccc2c1` | CP315 | 19011 | inhibitor, single point |
| `N=C(N)c1ccc2cc(OC(=O)c3ccc(N=C(N)N)cc3)ccc2c1` | CP201 | 11995 | inhibitor, partial curve |
| `N=C(N)c1ccc2cc(OC(=O)c3ccc(N=C(N)N)cc3)ccc2c1` | CP266 | 15101 | inhibitor, single point |
| `N=C(N)c1ccc2cc(OC(=O)c3ccc(N=C(N)N)cc3)ccc2c1` | CP185 | 8912 | inhibitor, partial curve |
| `N=C(N)c1ccc2cc(OC(=O)c3ccc(N=C(N)N)cc3)ccc2c1` | Dd2 | 17782 | inhibitor, single point |
| `N=C(N)c1ccc2cc(OC(=O)c3ccc(N=C(N)N)cc3)ccc2c1` | CP329 | 9528 | inhibitor, partial curve |
| `N=C(N)c1ccc2cc(OC(=O)c3ccc(N=C(N)N)cc3)ccc2c1` | CP256 | 7943 | inhibitor, partial curve |
| `N=C(N)c1ccc2cc(OC(=O)c3ccc(N=C(N)N)cc3)ccc2c1` | CP269 | 15101 | inhibitor, partial curve |
| `N=C(N)c1ccc2cc(OC(=O)c3ccc(N=C(N)N)cc3)ccc2c1` | CP291 | 13459 | inhibitor, partial curve |
| `N=C(N)c1ccc2cc(OC(=O)c3ccc(N=C(N)N)cc3)ccc2c1` | AS120 | 11220 | inhibitor, partial curve |

The first 5 entries again:

compound	setting	fitted potency (nM)	remark
CNC[C@H](O)c1ccc(OC(=O)C(C)(C)C)c(OC(=O)C(C)(C)C)c1	7G8	10000	inhibitor, single point
CNC[C@H](O)c1ccc(OC(=O)C(C)(C)C)c(OC(=O)C(C)(C)C)c1	CP315	2031	inhibitor, partial curve, poor fit
CNC[C@H](O)c1ccc(OC(=O)C(C)(C)C)c(OC(=O)C(C)(C)C)c1	DIV17	128.2	inhibitor, full curve, poor fit
CNC[C@H](O)c1ccc(OC(=O)C(C)(C)C)c(OC(=O)C(C)(C)C)c1	PC15	10000	inhibitor, single point
CNC[C@H](O)c1ccc(OC(=O)C(C)(C)C)c(OC(=O)C(C)(C)C)c1	PC26	8087	inhibitor, single point